Laboratory results published in publication PMC12807481.

Protein sequences, listed by entry. Tags and fused reporters are not part of them. Lines headed by an entry give the natural chain unless they say otherwise; changes in a name come on top.
UniProt P36776: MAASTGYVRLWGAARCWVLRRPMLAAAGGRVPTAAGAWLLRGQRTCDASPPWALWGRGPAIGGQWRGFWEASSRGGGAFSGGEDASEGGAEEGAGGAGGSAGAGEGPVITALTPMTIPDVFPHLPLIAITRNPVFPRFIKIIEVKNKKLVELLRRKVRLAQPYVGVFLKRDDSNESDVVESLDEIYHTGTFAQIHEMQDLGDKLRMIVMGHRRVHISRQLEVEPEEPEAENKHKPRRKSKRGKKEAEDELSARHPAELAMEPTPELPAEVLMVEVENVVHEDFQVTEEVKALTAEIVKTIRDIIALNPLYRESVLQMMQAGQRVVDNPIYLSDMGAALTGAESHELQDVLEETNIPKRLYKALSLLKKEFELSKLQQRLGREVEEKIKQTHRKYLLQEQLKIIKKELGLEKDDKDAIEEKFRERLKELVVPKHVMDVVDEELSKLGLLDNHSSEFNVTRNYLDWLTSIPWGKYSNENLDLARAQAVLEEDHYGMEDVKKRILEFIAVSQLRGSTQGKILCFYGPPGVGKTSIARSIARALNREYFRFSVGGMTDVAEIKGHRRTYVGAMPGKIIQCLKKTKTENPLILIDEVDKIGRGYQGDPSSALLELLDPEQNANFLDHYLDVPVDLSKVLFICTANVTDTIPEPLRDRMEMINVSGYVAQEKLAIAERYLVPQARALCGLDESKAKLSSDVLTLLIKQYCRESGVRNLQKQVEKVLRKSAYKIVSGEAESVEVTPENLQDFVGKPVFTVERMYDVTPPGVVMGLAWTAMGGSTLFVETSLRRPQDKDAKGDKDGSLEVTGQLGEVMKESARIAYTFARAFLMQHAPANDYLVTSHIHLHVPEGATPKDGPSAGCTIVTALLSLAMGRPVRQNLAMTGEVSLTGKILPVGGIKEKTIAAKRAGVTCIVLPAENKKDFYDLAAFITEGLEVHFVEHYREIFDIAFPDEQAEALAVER

Key:
Test in all cases: co-IP; WT or mutant LONP1-FLAG constructs immunoprecipitated from K562 cells, immunoblots of FLAG and endogenous FBXO11
LONP1^del551–602-FLAG = LONP1^del551–602-FLAG (UniProt P36776)
LONP1^del2–66-FLAG = LONP1^del2–66-FLAG (UniProt P36776)
[1] = target: C-terminal FLAG-tagged LONP1, wild type (UniProt P36776)

binding (LONP1^del551–602-FLAG): no binding | binding (LONP1^del2–66-FLAG): no binding | binding [1]: binds
B1: FBXO11 (endogenous) (protein, UniProt Q86XK2 1-927)
chain: MNSVRAANRRPRRVSRPRPVQQQQQQPPQQPPPQPPQQQPPQQQPPPPPQQQQQQQPPPPPPPPPPLPQERNNVGERDDDVPADMVAEESGPGAQNSPYQLRRKTLLPKRTACPTKNSMEGASTSTTENFGHRAKRARVSGKSQDLSAAPAEQYLQEKLPDEVVLKIFSYLLEQDLCRAACVCKRFSELANDPILWKRLYMEVFEYTRPMMHPEPGKFYQINPEEYEHPNPWKESFQQLYKGAHVKPGFAEHFYSNPARYKGRENMLYYDTIEDALGGVQEAHFDGLIFVHSGIYTDEWIYIESPITMIGAAPGKVADKVIIENTRDSTFVFMEGSEDAYVGYMTIRFNPDDKSAQHHNAHHCLEITVNCSPIIDHCIIRSTCTVGSAVCVSGQGACPTIKHCNISDCENVGLYITDHAQGIYEDNEISNNALAGIWVKNHGNPIIRRNHIHHGRDVGVFTFDHGMGYFESCNIHRNRIAGFEVKAYANPTVVRCEIHHGQTGGIYVHEKGRGQFIENKIYANNFAGVWITSNSDPTIRGNSIFNGNQGGVYIFGDGRGLIEGNDIYGNALAGIQIRTNSCPIVRHNKIHDGQHGGIYVHEKGQGVIEENEVYSNTLAGVWVTTGSTPVLRRNRIHSGKQVGVYFYDNGHGVLEDNDIYNHMYSGVQIRTGSNPKIRRNKIWGGQNGGILVYNSGLGCIEDNEIFDNAMAGVWIKTDSNPTLRRNKIHDGRDGGICIFNGGRGLLEENDIFRNAQAGVLISTNSHPILRKNRIFDGFAAGIEITNHATATLEGNQIFNNRFGGLFLASGVNVTMKDNKIMNNQDAIEKAVSRGQCLYKISSYTSYPMHDFYRCHTCNTTDRNAICVNCIKKCHQGHDVEFIRHDRFFCDCGAGTLSNPCTLAGEPTHDTDTLYDSAPPIESNTLQHN

These are yes or no findings as the source states them, for the method shown. In cells and extracts the contact can be indirect. For part of these data: Binding calls can cover weak binding; strength is not graded here.
